# Experimental data published in PubChem BioAssay AID504834 (National Center for Advancing Translational Sciences (NCATS), 2011).
# Several values for one entry are separate records, joined by “and”; a condition that tells them apart may be missing. Identical values can stand only once. The campaign covered roughly 320,000 compounds. About 22,000 (6.9%) were called active. Inconclusive means that the source gave no clear call. Such entries were picked first, then a sample of the others. Calls come from the whole dose curve; as a rule, active = well fitted inhibition curve with a large enough effect; inconclusive = small, poorly fitted or top-dose-only effect, or another doubt; inactive = no such curve, though single readings can be large or run the other way. Potencies of inconclusive entries are doubtful fits and often do not repeat.
# Assay: Primary qHTS for delayed death inhibitors of the malarial parasite plastid, 96 hour incubation
# Conditions: P. falciparum luciferase reporter growth; series mostly up to 28.7 µM
# Outline: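 Compounds incubated with erythrocytes infected by luciferase-expressing P. falciparum (2% hematocrit, 0.05% parasitemia final) for 96 hours, 37 C in 5% CO2. Growth inhibition scored as decreased luciferase luminescence.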
# Potency is the fitted concentration of half-maximal effect.
row,Compound,Potency
1,Cc1ccc(NC(=O)CN2C(=O)CN=C(c3ccccc3)c3cc(Cl)ccc32)cc1,"inconclusive: 13.1 µM [inhibitor, partial curve, poor fit]"
2,Cc1cccc(NC(=S)NNC(=O)CCn2nc(C)c([N+](=O)[O-])c2C)c1,"inconclusive: 18.5 µM [inhibitor, single point]"
3,O=c1[nH][nH]cc1C=Nc1ccc(Oc2ccccc2)cc1,"inconclusive: 1.65 µM [inhibitor, full curve, poor fit]"
4,O=c1[nH]c2ccc(NCc3ccc(F)cc3)cc2[nH]1,"inconclusive: 11.7 µM [inhibitor, single point]"
5,COc1ccc(S(=O)(=O)N2CCN(C(=O)NC3CCCCC3)CC2)cc1,"inconclusive: 18.5 µM [inhibitor, single point]"
6,CCOC(=O)c1c(NC(=O)c2ccn(CC)n2)sc2c1CCC2,"inconclusive: 10.4 µM [inhibitor, single point]"
7,CCCC(C(=O)NCc1ccco1)N(C(=O)CNS(=O)(=O)c1ccc(Cl)cc1)C1CCCC1 (stereo not given),inactive
8,O=C(CCCn1c(=S)[nH]c2cc3c(cc2c1=O)OCO3)NCc1ccco1,"inconclusive: 1.47 µM [inhibitor, partial curve, poor fit]"
9,CC1CN(C(=O)CCC(=O)NCc2ccc(F)cc2)c2ccccc2S1 (stereo not given),"inconclusive: 16.5 µM [inhibitor, single point]"
10,Cc1ccc(S(=O)(=O)N(Cc2ccc([N+](=O)[O-])cc2)C(=O)N2CCN(C)CC2)cc1,inactive
11,COc1ccc(/C=C(/NC(=O)c2cccc([N+](=O)[O-])c2)C(=O)O)cc1,inactive
12,CN(CCNC(=O)c1cc2c(-c3ccccc3F)nn(C)c2s1)C1CCCCC1,inactive
13,CC1(C)CC(=O)C=C(c2ccc(F)cc2OCc2ccccc2)C1,"inconclusive: 11.7 µM [inhibitor, partial curve]"
14,CCOC(=O)N1CCN(C(=O)c2cc3cc(C)ccc3[nH]2)CC1,"inconclusive: 10.4 µM [inhibitor, single point]"
15,CC(C)N(C(=O)COC(=O)CNC(=O)c1ccc(Br)cc1)c1ccccc1,"inconclusive: 11.7 µM [inhibitor, single point]"
16,CC(Sc1nccn1C)C(=O)Nc1ccc(Cl)cn1 (stereo not given),inactive
17,O=c1cc(CN2CCN(c3ccc(F)cc3)CC2)c2cc3c(cc2o1)CCCC3,inactive
18,CCN(CC)CCCNC(=O)c1cc2c(Cl)nc3ccccc3c2s1,"inconclusive: 18.5 µM [inhibitor, single point]"
19,N#Cc1ccc(OCC(O)CN2CCN(C(c3ccccc3)c3ccccc3)CC2)cc1 (stereo not given),active: 11.7 µM
20,COc1ccc(/C=C/C(=O)N(CCC(N)=O)c2ccccc2)cc1S(=O)(=O)N1CCOCC1,inactive
21,COc1cc2c(cc1NC(=O)COC(=O)C1CC(=O)N(Cc3ccco3)C1)oc1ccccc12 (stereo not given),inactive
22,CCOC(=O)c1c(NC(=S)NNS(=O)(=O)c2ccc(Br)cc2)sc2c1CCCCC2,"inconclusive: 18.5 µM [inhibitor, partial curve, poor fit]"
23,Cc1[nH]c2ccccc2c1C1C(c2ccccc2)=NN=C(C(C)C)N1O (stereo not given),"inconclusive: 18.5 µM [inhibitor, single point]"
24,C#CCOn1c(-n2nc(C)cc2C)nc2ccccc2c1=O,"inconclusive: 4.15 µM [inhibitor, single point]"

row,Compound,Potency
1,Cc1ccc(NS(=O)(=O)c2c(C)nc3sccn3c2=O)cc1,inactive
2,Cc1ccc(C(=O)CSc2nnc(-c3ccccc3N)n2C)cc1C,"inconclusive: 8.28 µM [inhibitor, partial curve, poor fit]"
3,Cc1cccc(OCC(=O)N/N=C/c2ccc3c(c2)OCO3)c1,inactive
4,c1ccc(CCCCN2C(Nc3ccccc3)=NC[C@@H]2Cc2ccccc2)cc1,"inconclusive: 18.5 µM [inhibitor, single point]"
5,Cn1c(SCC(=O)NC2CCCC2)nnc1-c1ccco1,inactive
6,C=CCn1c(SCC(=O)Nc2cccnc2Cl)nnc1-c1ccc(C(C)(C)C)cc1,"inconclusive: 18.5 µM [inhibitor, single point]"
7,COc1ccc(NC(=O)CN2CCC(NC(=O)c3ccc(OC)cc3)CC2)cc1,inactive
8,COc1ccc(/C=C/C(=O)c2ccc(O)cc2)cc1COc1ccc(F)cc1,"inconclusive: 0.415 µM [inhibitor, partial curve, poor fit]"
9,CCN(CC)C(=O)COc1ccc(/C(C)=N/Nc2ncc(Cl)cc2Cl)cc1,inactive
10,COc1ccc(-n2c(SC(C)C(=O)N3CCOCC3)nc3ccccc3c2=O)cc1 (stereo not given),"inconclusive: 18.5 µM [inhibitor, single point]"
11,CCn1c(COc2ccc3c(c2)CCCC3)nnc1SCC(=O)Nc1ccc(C(=O)OC)cc1,active: 9.28 µM
12,O=c1c2cnn(-c3ccccc3)c2ncn1Cc1cccnc1,"inconclusive: 0.0657 µM [inhibitor, full curve, poor fit]"
13,N#Cc1ccc(-c2ccc(OCC(=O)NCCc3ccccc3)cc2)cc1,"inconclusive: 5.86 µM [inhibitor, single point]"
14,Cc1ccc(-n2cc(CNCCCn3cccn3)c(-c3cccc(C)c3)n2)cc1,"inconclusive: 9.28 µM [inhibitor, single point]"
15,CNc1nc(SCC(=O)OC)nc(N2CCOCC2)n1,"inconclusive: 0.928 µM [inhibitor, partial curve, poor fit]"
16,Cn1cc(C[C@H](C(=O)O)N2C(=O)c3ccc(C(=O)O)cc3C2=O)c2ccccc21,"inconclusive: 18.5 µM [inhibitor, single point]"
17,COC(=O)C1=C(c2ccc(OC(F)(F)F)cc2)C[C@@H]2CC[C@H]1N2C(=O)N1CCCC1,"inconclusive: 4.65 µM [inhibitor, partial curve]"
18,Cc1cc(O)c(C=O)c2c1C(=O)Oc1c(CO)c(O)c3c(c1O2)C(O)OC3=O (stereo not given),inactive
19,Cc1ccc(C2CC(=O)C(C=NCCN3CCN(CC(=O)Nc4cc(C)cc(C)c4)CC3)=C(O)C2)cc1 (stereo not given),"inconclusive: 0.0037 µM [inhibitor, full curve]"
20,C=CCNC(=O)C(=O)c1cccn1-c1ccsc1C(=O)OC,inactive
21,Cc1ccc(S(=O)(=O)NCCC(=O)NCc2ccc(Cl)cc2)cc1C,"inconclusive: 18.5 µM [inhibitor, single point]"
23,CCCCn1c(N)c(N(CCOC)C(=O)C2CCN(c3ncnc4sc(C)c(C)c34)CC2)c(=O)[nH]c1=O,active: 11.7 µM
24,O=C(Nc1ccccc1)c1ccc(=O)n(Cc2ccc(F)c(F)c2)c1,"inconclusive: 0.465 µM [inhibitor, partial curve, poor fit]"

row,Compound,Potency
1,COc1ccc(N2CCN(C(=O)c3ccc(N4C(=O)NC5CC4(C)Oc4ccccc45)cc3)CC2)cc1 (stereo not given),"inconclusive: 11.7 µM [inhibitor, single point]"
2,CN(C)S(=O)(=O)c1cccc(NC(=S)N/N=C/C2CC=CCC2)c1 (stereo not given),"inconclusive: 18.5 µM [inhibitor, single point]"
3,O=C(CCCN1C(=O)/C(=C/c2ccc3c(c2)OCO3)SC1=S)Nc1ccc(C(=O)O)cc1,"inconclusive: 11.7 µM [inhibitor, partial curve]"
4,O=C1C2C3C=CC(C2C(=O)N1c1cccc(O)c1)C1C2C(=O)N(c4cccc(O)c4)C(=O)C2C31 (stereo not given),inactive
5,CCc1ccc(NC(=O)CSc2ccc(-c3sc(C)nc3C)nn2)cc1,"inconclusive: 13.1 µM [inhibitor, single point]"
6,CCN(CC)c1ccc(S(=O)(=O)N2CCOCC2)cc1NC(=O)COC(=O)c1ccco1,inactive
7,C=CCN1C(=O)/C(=C/c2cccs2)S/C1=N\S(=O)(=O)c1ccc(F)cc1,"inconclusive: 13.1 µM [inhibitor, single point]"
8,Cn1cc2ccc(N)cc2n1,inactive
9,CC(C)c1ccc(OCC(=O)N2CCN(C(=O)c3ccco3)CC2)cc1,"inconclusive: 10.4 µM [inhibitor, single point]"
10,O=c1oc2ccccc2c(NC2CCCCC2)c1NS(=O)(=O)c1ccc(F)cc1,"inconclusive: 20.8 µM [inhibitor, partial curve, poor fit]"
11,COc1ccc(-n2nc(C(=O)NCC(=O)N3CC(C)CC(C)C3)c3ccccc3c2=O)c(OC)c1 (stereo not given),inactive
12,N=c1sccn1CC(=O)Nc1ccc(S(N)(=O)=O)cc1,"inconclusive: 6.57 µM [inhibitor, partial curve]"
13,Cc1ccc(C(=O)N/C(=C/c2cccc([N+](=O)[O-])c2)C(=O)NCC2CCCO2)cc1 (stereo not given),"inconclusive: 10.4 µM [inhibitor, single point]"
14,COc1ccc2nc(C(F)(F)C(F)(F)F)c(C#N)c(N)c2c1,inactive
15,COc1ccc(N(CC(=O)N2CCOCC2)S(C)(=O)=O)cc1OC,active: 13.1 µM
16,CCN(CC)c1ccc(NC(=O)CN2CCN(CC(=O)Nc3ccc(OC)cc3)CC2)cc1,inactive
17,COc1ccc(CNC(=O)C2CC(=O)N(C3CCCC3)C2)cc1 (stereo not given),inactive
18,CCCSc1nc(N)cc(=O)[nH]1,"inconclusive: 18.5 µM [inhibitor, single point]"
19,COc1ccc(CCC(=O)Nc2ncc(C)s2)cc1,inactive
20,Cc1cccc(OCC(=O)Nc2ccc(S(=O)(=O)N3CCCC3)cc2)c1,inactive
21,CC1C(=O)N2CCCc3cc(NC(=O)CC(C)(C)C)cc1c32 (stereo not given),inactive
22,CCC(C)NC(=O)C(Cc1ccccc1)n1cccc1 (stereo not given),"inconclusive: 11.7 µM [inhibitor, single point]"
